PubChem BioAssay AID743454 | Peter MacCallum Cancer Centre, 2014

- Screen: 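Knock-downs lowering viability or raising caspase 3/7 activity in vorinostat-treated resistant cells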 (primary screen)
- System: human HCT116-VR colon cancer cells, selected for vorinostat resistance
- Knock-down reagent: siRNA pool against human genes, 40 nM siRNA pool
- Time to read-out: vorinostat for 24 h, read-out about 72 h after transfection
- Challenge: vorinostat at 2.5 µM final
- Measurement: 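Cell viability by CellTiter-Fluor and caspase 3/7 activity by luminescence, each scaled to mock wells per plate, duplicates averaged, then robust z-scored over all plates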
- Reading the numbers: viability robust z-score: higher = more viable cells than screen typical; caspase robust z-score: higher = more caspase 3/7 activity than screen typical
- Active means: 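a knock-down is a hit when classed RV1 or RV2 for lowered viability, or CA1 or CA2 for caspase activation; those lethal without drug were dropped; hits were retested singly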
The deposit covers about 18,000 reagents; this is a random part of them. 450 of all reagents (2.5%) were called active. 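Single biological run; no consistent viability z cut-off exists, so the class columns, not z-scores, define the calls.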 Reagent sequences are not shown.

CAPS [SID134316140] scored viability hit class no change; caspase hit class no change; viability robust z-score -0.18; caspase robust z-score -0.05; inactive.
TSC22D2 [SID135624119] gave viability hit class no change; caspase hit class no change; viability robust z-score 0.9; caspase robust z-score -0.41; inactive.
MRPS23 [SID135622428] scored viability hit class no change; caspase hit class no change; viability robust z-score -0.55; caspase robust z-score -0.24; inactive.
After knock-down of PEX11A [SID134316884], the record shows viability hit class no change; caspase hit class no change; viability robust z-score -0.56; caspase robust z-score 4.22; inactive.
Against GLUD2 [SID135621701], the entry reads viability hit class no change; caspase hit class no change; viability robust z-score 0.3; caspase robust z-score -0.4; inactive.
Against CRACR2A [SID134319036], the values are viability hit class no change; caspase hit class no change; viability robust z-score -0.08; caspase robust z-score 1.01; inactive.
Against PMPCA [SID134313591], the values are viability hit class no change; caspase hit class no change; viability robust z-score 0.33; caspase robust z-score -0.77; inactive.
PIWIL4 [SID134310563] gave viability hit class no change; caspase hit class no change; viability robust z-score 0.28; caspase robust z-score -0.08; inactive.
Knock-down of MYH7 [SID152147938] came out at: viability hit class no change; caspase hit class no change; viability robust z-score -0.82; caspase robust z-score -0.36; inactive.
NOMO3 [SID135625132] scored viability hit class no change; caspase hit class no change; viability robust z-score -0.46; caspase robust z-score -0.58; inactive.
With knock-down of CALY [SID134314978] the results were viability hit class no change; caspase hit class no change; viability robust z-score 1.4; caspase robust z-score 0.03; inactive.
Depletion of OXCT2 [SID134318079] came out at: viability hit class no change; caspase hit class no change; viability robust z-score 0.62; caspase robust z-score 1.4; inactive.
With knock-down of CD93 [SID152149979] the results were viability hit class no change; caspase hit class no change; viability robust z-score 0.61; caspase robust z-score 0.2; inactive.
With knock-down of SOCS6 [SID135623321], the record shows viability hit class no change; caspase hit class no change; viability robust z-score 1.04; caspase robust z-score -0.92; inactive.
